This is an account of results in US20090192289A1 (Genentech, published 2009).

These are yes or no findings as the source states them, for the method shown. Some binding calls cover weakened binding; strength is not graded here. Tags and fused reporters may be left off the sequences shown.

The assay addresses T1, GST-Omi PDZ fusion protein (human, UniProt O43464 359-458).
T1 construct: also called GST-hOmiPDZ; hOmi PDZ domain; not shown: glutathione S-transferase (GST) encoded by plasmid pGEX6P-3
T1 sequence: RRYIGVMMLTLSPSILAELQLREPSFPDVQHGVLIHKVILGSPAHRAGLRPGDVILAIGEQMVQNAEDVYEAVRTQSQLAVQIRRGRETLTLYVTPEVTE
The experiment in a line: phage ELISA on GST-Omi PDZ after three rounds of selection. How it is done:
Selection for Omi PDZ peptides—Previously described procedures were used to isolate peptides that bound to a GST-Omi PDZ fusion, using libraries of random decapeptides fused to either the C terminus(18) or octapeptide fused to the N terminus(19) of the M13 gene-8 major coat protein, designated as libC or libN, respectively. After three rounds of selection, individual clones were grown in a 96-well format in 500 μL of 2YT broth supplemented with carbenicillin, kanamycin and KO7, and the culture supernatants were used directly in phage ELISAs(19) to detect peptides that bound specifically to Omi PDZ. Peptide sequences derived from positive clones were aligned and tabulated. A total of 95 positive colonies from libC and 89 from libN were analyzed. (see Table II). […] The sequences were selected after three rounds of sorting with IPTG induction. Hydrophobic residues (A, F, I, L, M, V, W, Y) are italicized and bolded, n is the number of siblings.
For orientation: ELISA stands for enzyme-linked immunosorbent assay.

With YGGTFILPHL (peptide, not shown: large carriers) [libC phage-displayed peptide SEQ ID NO:37], the binding entry is on record as “binds”.
